Source: PubChem BioAssay AID504791 (Drosophila RNAi Screening Center, 2011)
The screen tested about 23,000 reagents; this is a random part of those that have a named target and a result. In the full data, 199 (0.86%) were called active. 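Plate-scaled ratios behind the calls are not deposited; printed light signals are raw; many rows marked increased or decreased are still called inactive.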 Names joined by + are all predicted targets of the reagent. No sequences are given here. Not given: the direction of the score.

- Aim: 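Factors in Argonaute-based small RNA production and activity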 (primary screen)
- Cells: Drosophila S2-derived reporter cells
- Knock-down reagent: long dsRNA against Drosophila genes, about 150-250 ng dsRNA per well (siRNA assay); about 80-120 ng (miRNA assay)
- Timing: about 5 days (siRNA assay); about 4 days (miRNA assay)
- Challenge: copper sulfate induction of reporters: 25 µM (siRNA assay); 200 mM stated (miRNA assay), 1-2 days before reading
- Read-out: 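Per-well ratio of Renilla over firefly light, expressed relative to that plate's average ratio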
- Active means: 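a well was a first-pass pick when its plate-scaled ratio rose above 1.5 (siRNA assay) or 1.6 (miRNA assay), or dropped below 0.6; a gene counted only if two separate dsRNAs agreed on retest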

| target gene | dsRNA | stable siRNA reporter change | miRNA reporter change | stable assay Renilla, run 1 (luminescence) | stable assay firefly, run 1 (luminescence) | call |
| --- | --- | --- | --- | --- | --- | --- |
| CG14258 | DRSC14753 | – | – | 6676 | 3.42e5 | inactive |
| Pgant6 | DRSC08552 | – | – | 11002 | 5.60e5 | inactive |
| CG3631 | DRSC15503 | – | – | 9029 | 5.92e5 | inactive |
| Ag5r | DRSC19327 | – | – | 7143 | 4.18e5 | inactive |
| CG9992 | DRSC20226 | – | – | 7454 | 5.06e5 | inactive |
| CG9992 | DRSC21643 | – | – | 8538 | 4.23e5 | inactive |
| Apt1 | DRSC10348 | – | – | 6974 | 5.42e5 | inactive |
| CG17059 | DRSC06654 | – | – | 6574 | 3.36e5 | inactive |
| CG13157 | DRSC06282 | – | – | 6484 | 3.71e5 | inactive |
| CG2747 | DRSC15450 | – | – | 7087 | 4.39e5 | inactive |
| Picot | DRSC07508 | reporter ratio lowered past the hit cutoff | – | 5803 | 3.89e5 | inactive |
| Polr1H | DRSC14594 | – | – | 9434 | 4.61e5 | inactive |
| Bdp1 | DRSC03192 | – | – | 20090 | 1.40e6 | inactive |
| Oct-TyrR | DRSC11883 | – | – | 7924 | 4.20e5 | inactive |
| Cpr76Bb | DRSC11061 | – | – | 6955 | 4.65e5 | inactive |
| Cpr76Bb | DRSC22870 | – | – | 4883 | 5.82e5 | inactive |
| Adh + Adhr | DRSC01862 | – | – | 1.51e5 | 9.78e5 | inactive |
| Adh + Adhr | DRSC01863 | – | – | 8099 | 4.08e5 | inactive |
| CG3652 | DRSC00624 | – | – | 7758 | 5.23e5 | inactive |
| l(3)07882 | DRSC15882 | – | – | 7603 | 3.56e5 | inactive |
| CG8746 | DRSC07257 | – | – | 7683 | 3.19e5 | inactive |
| wor | DRSC03637 | – | – | 7688 | 4.14e5 | inactive |
| CG2126 | DRSC15418 | – | – | 6123 | 4.24e5 | inactive |
| CG14180 (retired record) | DRSC10179 | – | reporter ratio lowered past the hit cutoff | 3967 | 2.31e5 | inactive |
| DppIII | DRSC16241 | – | – | 6732 | 5.69e5 | inactive |
| CG11413 + CG4622 | DRSC04109 | – | – | 7466 | 4.19e5 | inactive |
| intr | DRSC14528 | – | – | 7668 | 3.86e5 | inactive |
| Etf-QO | DRSC06111 | – | – | 7032 | 4.77e5 | inactive |
| pum | DRSC12722 | – | – | 5243 | 2.72e5 | inactive |
| pum | DRSC12726 | – | – | 4104 | 3.60e5 | inactive |
| pum | DRSC17037 | – | – | 3484 | 3.75e5 | inactive |
| pum | DRSC17038 | – | – | 7179 | 4.86e5 | inactive |
| pum | DRSC22758 | – | – | 4696 | 3.15e5 | inactive |
| pum | DRSC22794 | – | – | 4080 | 4.14e5 | inactive |
| ssp5 | DRSC14955 | – | – | 7915 | 4.20e5 | inactive |
| CG15699 (retired record) | DRSC06571 | reporter ratio lowered past the hit cutoff | – | 7325 | 6.27e5 | inactive |
| CG14826 | DRSC10197 | – | – | 6010 | 4.92e5 | inactive |
| fs(1)Ya | DRSC18776 | – | – | 7439 | 3.15e5 | inactive |
| fs(1)Ya | DRSC23058 | – | – | 4519 | 2.51e5 | inactive |
| CG7564 | DRSC10880 | – | – | 11208 | 4.58e5 | inactive |
| CG3611 | DRSC04395 | – | – | 5911 | 3.62e5 | inactive |
| fidipidine | DRSC07618 | – | – | 6779 | 2.58e5 | inactive |
| CG15172 | DRSC02473 | – | – | 7542 | 5.23e5 | inactive |
| Nin | DRSC02007 | – | – | 19010 | 4.01e5 | inactive |
| Elp3 | DRSC00448 | – | – | 8214 | 3.62e5 | inactive |
| yip7 | DRSC11410 | – | – | 6492 | 6.11e5 | inactive |
| sunz | DRSC12559 | – | – | 7588 | 4.50e5 | inactive |
| GluRIIC | DRSC00642 | – | – | 40390 | 1.80e5 | inactive |
| Pp2C1 | DRSC18699 | – | – | 7563 | 5.75e5 | inactive |
| Pp2C1 | DRSC23287 | – | – | 3379 | 2.91e5 | inactive |
| Cyp9f3 | DRSC16636 | – | – | 7704 | 5.42e5 | inactive |
| CG14100 | DRSC10101 | – | – | 7370 | 3.59e5 | inactive |
| PRL-1 | DRSC03393 | – | – | 6616 | 4.23e5 | inactive |
| sob | DRSC00838 | – | reporter ratio lowered past the hit cutoff | 5338 | 2.35e5 | inactive |
| gb | DRSC15961 | – | – | 7745 | 4.68e5 | inactive |
| Elba1 | DRSC00276 | – | – | 6967 | 3.73e5 | inactive |
| blot | DRSC09485 | – | – | 5751 | 5.82e5 | inactive |
| blot | DRSC11328 | – | – | 9491 | 2.68e5 | inactive |
| CG17110 | DRSC15173 | – | – | 6523 | 3.11e5 | inactive |
| Sms | DRSC10408 | – | – | 6032 | 2.99e5 | inactive |
| CG13896 | DRSC08366 | – | – | 6166 | 3.22e5 | inactive |
| CG18420 | DRSC01954 | – | – | 7599 | 4.27e5 | inactive |
| Porin2 | DRSC02584 | – | – | 8294 | 5.22e5 | inactive |
| Nt5c | DRSC06711 | – | – | 9130 | 6.20e5 | inactive |
| Gapdh2 | DRSC20246 | – | – | 5091 | 3.00e5 | inactive |
| CG31915 | DRSC03000 | – | – | 7879 | 6.12e5 | inactive |
| CG15577 | DRSC18065 | – | – | 7711 | 4.83e5 | inactive |
| gukh | DRSC14768 | – | – | 7012 | 4.03e5 | inactive |
| gukh | DRSC15806 | – | – | 7306 | 2.79e5 | inactive |
| gukh | DRSC15944 | – | – | 9486 | 4.43e5 | inactive |
| SmF | DRSC07397 | – | – | 8570 | 4.51e5 | inactive |
| dco | DRSC16929 | – | – | 6040 | 4.25e5 | inactive |
| oaf | DRSC00831 | – | – | 7965 | 4.42e5 | inactive |
| dsh | DRSC19803 | – | – | 5191 | 3.93e5 | inactive |
| Jon74E | DRSC10617 | – | – | 8038 | 5.11e5 | inactive |
| Pk34A | DRSC03398 | – | – | 6968 | 3.81e5 | inactive |
| CG5776 | DRSC02891 | – | – | 11540 | 1.43e6 | inactive |
| Nmdar2 | DRSC18183 | – | – | 6070 | 4.48e5 | inactive |
| Nmdar2 | DRSC18511 | – | – | 5703 | 3.63e5 | inactive |
| Nmdar2 | DRSC18569 | – | – | 5527 | 4.55e5 | inactive |
| Adss | DRSC14162 | – | – | 8857 | 3.39e5 | inactive |
| Ctl2 | DRSC14423 | – | – | 6895 | 5.25e5 | inactive |
| wgn | DRSC19998 | – | – | 5760 | 5.59e5 | inactive |

Reformatted: entries from further up
pum [DRSC17038] — stable assay Renilla, run 1 (luminescence) = 7179; stable assay firefly, run 1 (luminescence) = 4.86e5; call = inactive
pum [DRSC22758] — stable assay Renilla, run 1 (luminescence) = 4696; stable assay firefly, run 1 (luminescence) = 3.15e5; call = inactive
pum [DRSC22794] — stable assay Renilla, run 1 (luminescence) = 4080; stable assay firefly, run 1 (luminescence) = 4.14e5; call = inactive
ssp5 [DRSC14955] — stable assay Renilla, run 1 (luminescence) = 7915; stable assay firefly, run 1 (luminescence) = 4.20e5; call = inactive
CG15699 (retired record) [DRSC06571] — stable siRNA reporter change = reporter ratio lowered past the hit cutoff; stable assay Renilla, run 1 (luminescence) = 7325; stable assay firefly, run 1 (luminescence) = 6.27e5; call = inactive
CG14826 [DRSC10197] — stable assay Renilla, run 1 (luminescence) = 6010; stable assay firefly, run 1 (luminescence) = 4.92e5; call = inactive
fs(1)Ya [DRSC18776] — stable assay Renilla, run 1 (luminescence) = 7439; stable assay firefly, run 1 (luminescence) = 3.15e5; call = inactive
fs(1)Ya [DRSC23058] — stable assay Renilla, run 1 (luminescence) = 4519; stable assay firefly, run 1 (luminescence) = 2.51e5; call = inactive
